No constants are given. Whether binding was seen depends on the method and setting. In cells and extracts the contact can be indirect. A yes stands for co-enrichment or nearness to the bait. Other partners may have been found. No binding means not detected with the bait. Where a sequence is shown, tags or fusion partners need not be part of it. Each block holds one molecule with its values, some of them ahead of it.
Biological target: T1, PfYTH.2-sandwich (PfYTH.2 with a C-terminal 2xFKBP-GFP-2xFKBP tag) (P. falciparum (strain 3D7)) (UniProt O77335)
T1 sequence: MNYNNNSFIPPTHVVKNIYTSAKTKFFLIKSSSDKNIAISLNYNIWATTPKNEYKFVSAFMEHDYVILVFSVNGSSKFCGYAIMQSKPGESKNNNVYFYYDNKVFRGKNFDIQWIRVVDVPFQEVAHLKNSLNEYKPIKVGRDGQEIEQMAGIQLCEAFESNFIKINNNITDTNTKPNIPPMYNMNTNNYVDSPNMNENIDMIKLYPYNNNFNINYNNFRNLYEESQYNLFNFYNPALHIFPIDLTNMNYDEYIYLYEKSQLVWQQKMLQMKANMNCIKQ
Assay: affinity purification with mass spectrometry; PfYTH.2-sandwich parasites (3 replicates) against wild-type 3D7 (2 replicates, control); cross-linked with 0.5 mM DSP, lysed in RIPA buffer, anti-GFP magnetic beads overnight at 4°C, on-bead trypsin digestion, LC-MS; hits: ≥2 unique peptides in at least 2 of 3 replicates and not present in the control

Molecule: eukaryotic initiation factor 3 subunit a (eIF3a) (P. falciparum (endogenous in strain 3D7))
binding: binds

B1: PfYTH.1 (PF3D7_1419900) (protein, UniProt Q8ILQ1 1-572)
chain: MIRNKKKRKRNIYDLYIEMQKENYEDEEKRISYIDDGTITLEKHVKMRLEEQTNLLSIKGIDRVDIKQKKGKHSIICIHYIKNMCMKNLFCNYLHQLIYSRIPTCKNYMKYNYCADRVRGCCMFRHNLDNSNNNLYYNESKDEYLDDALKFLHEKNICVNYLLGFCSLGYGCRKIHKTKSRRYINIISTLPKFFLDSILVNKHLYTHLYNNPKKLSNDMNKLKDALIILSGEKYIDKNLSTNKNDNIDLLNKDVIQNNNIFNSNNIDIGIENNISHGDINNDSKNQKGVSFLPGYNNVDNKNNKYINEYIDDKNIINNKSSHTNNEKGYFHNNILLQSIDNNNNNNLIQENNINIPNVYDLNNNLIVAEKMKVFIIKCNQISHLYLSILYGVWATGKNNTRKFVNLFKDNYTIIFLFSVNESGGFQGYAKMVTMPIKNLYENLWGPITSRLGGNFRIQWIKMAKIDFDNFKHIVNPYNDNLPLKKSRDGTELPLNVASILCNKMNDMPNEDFLTGTIYEFKRRINHSSFFINLHKQNILNTNTRWDILIFNLNQKSDCTNITLIDGTEQNIT
binding: no binding

B3: CELF3-like protein (PF3D7_0823200) (protein, UniProt Q8IB66 1-286)
chain: MSLTNSSKIFIGSIPKDVTEEELKTEAAKYGTITQVYYVPATAQSPRGWAFITYEQRSEAYKAIEALDYKCIFPNSQRPLDVRFASYKYNNSNDAQGGNKNVWQKHVTTDGHPYYYNSVTGHSQWEKPKEMSATNFPGKGSAPSFGPPGANVFVFHLPSHWTDMELYQHFQHFGYVVSARIQRDANGRNKGYGFVSFNNPESALNAIKGMHGFYVSGKHLKVQLKKGEEHYVQMNTPAQPQLTPAQPYSVQQPIIGNHHQPYMTHLMYGGMDSPNQMRYNTYSISR
binding: binds

Results, then the molecule that gave them:

binding: binds
Molecule: eukaryotic initiation factor 3 subunit h (eIF3h) (P. falciparum (endogenous in strain 3D7))

binding: binds
Molecule: eukaryotic initiation factor 3 subunit c (eIF3c) (P. falciparum (endogenous in strain 3D7))

binding: binds
B2: polyadenylate binding protein 1 (PABP1; PF3D7_1224300) (protein, UniProt Q8I5H4 1-875)
chain: MIATGTNMMHPSFSTASLYVGDLNEDVTEAVLYEIFNTVGHVSSIRVCRDSVTRKSLGYAYVNYHNLADAERALDTLNYTNIKGQPARLMWSHRDPSLRKSGTGNIFVKNLDKSIDNKALFDTFSMFGNILSCKVATDEFGKSKSYGFVHYEDEESAKEAIEKVNGVQLGSKNVYVGPFIKKSERATNDTKFTNLYVKNFPDSVTETHLRQLFNPYGEITSMIVKMDNKNRKFCFINYADAESAKNAMDNLNGKKITDDGQIDETYDPKKEEATASTSGAANQTTGTDADKTDKNDKNNKADKNEKGDSSNANNNATATGATTTDTTTTPGETTTTTANADSTGANNNNGLSPNTNTSNTTTGSSNNSINLNENNNTAGNNNSTNNNNNSGSSMNNAGSAKKDETAASDCADTPNILYVGPHQSRARRHAILKAKFDNLNVENKNKHQGVNLYIKNLDDGIDDIMLRELFEPFGTITSAKVMRDEKEQSKGFGFVCFASQEEANKAVTEMHLKIINGKPLYVGLAEKREQRLSRLQQRFRMHPIRHHMNNPLNTPMQYASPQSPQLQFSQNTLSYGRPVITAFNQNNLISWRHQQAAQQQAVHQQAVHQQAAQQQLNFNTNLRGQINQMRLYTQNNMMNNNLNQNKPNAQLHHNQQYVPNALAQNGQQQPNLNAAGQHNAQQLQQQGNNQLLNNNMRNMNNRANRNMGNLGNMNNQKQLPLNINNKQQNAASQANQMNHQAQPQGAQAQQKNPQQMQQVPQGNNFKFTAQARNRMELPNKNANKVNTMNNNMNVNFNNNSTLTAAALASAPPSMQKQVLGENLFPLVANYHPTLAGKITGMMLEMDNSELLILLENEEQLKKKIDEALVVLQKAK

binding: binds
B4: gamete antigen 27 (PF3D7_1302100) (protein, UniProt Q8IEU2 1-217)
chain: MSKVQKDSAKPLDKFGNIYDYHYEHETHAPLSPRIRKVGDIEFHACSDYIYLLMTLSKDPEKFNYALKDRVSIRRYVRKNQNRYNYFLIEERVQDNIVNRISDRLISYCTDKEVTEDYIKKIDDYLWVEQRVIEEVSINVDHAREVKEKKRIMNDKKLIRMLFDTYEYVKDVKFTDDQYKDAAARISQFLIDVVDSYIIKPIPALPVTPDEPHHNNI

Source: PMC8092261
